According to PMC10957231:
No constants are given. Whether binding was seen depends on the method and setting. Binding seen in cells or lysates may run through a third protein.

Amino acid sequences for entries named in this document (tags omitted).
UniProt P23242: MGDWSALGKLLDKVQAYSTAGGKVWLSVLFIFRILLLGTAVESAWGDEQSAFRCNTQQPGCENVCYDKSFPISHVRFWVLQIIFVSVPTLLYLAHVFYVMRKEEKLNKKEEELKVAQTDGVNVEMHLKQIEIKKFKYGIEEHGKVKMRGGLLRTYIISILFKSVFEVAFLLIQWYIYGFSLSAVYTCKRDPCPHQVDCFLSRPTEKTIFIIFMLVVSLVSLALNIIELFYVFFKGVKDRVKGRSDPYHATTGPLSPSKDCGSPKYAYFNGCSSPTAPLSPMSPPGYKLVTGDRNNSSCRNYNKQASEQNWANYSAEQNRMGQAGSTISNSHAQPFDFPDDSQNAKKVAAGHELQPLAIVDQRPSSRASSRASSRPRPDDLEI

Target: connexin43 (Gja1) (mouse) (UniProt P23242)
Assay: co-IP; coprecipitation with the available antibodies to BT-IgSF and connexin43; sample, buffer and conditions not described

B1: BT-IgSF (brain- and testis-specific Ig superfamily protein) (protein, UniProt P0C673 23-428)
chain: LEVSESPGSVQVARGQTAVLPCAFSTSAALLNLNVIWMVIPLSNANQPEQVILYQGGQMFDGALRFHGRVGFTGTMPATNVSIFINNTQLSDTGTYQCLVNNLPDRGGRNIGVTGLTVLVPPSAPQCQIQGSQDLGSDVILLCSSEEGIPRPTYLWEKLDNTLKLPPTATQDQVQGTVTIRNISALSSGLYQCVASNAIGTSTCLLDLQVISPQPRSVGVIAGAVGTGAVLIVICLALISGAFFYWRSKNKEEEEEEIPNEIREDDLPPKCSSAKAFHTEISSSENNTLTSSNTYNSRYWNNNPKPHRNTESFNHFSDLRQSFSGNAVIPSIYANGNHLVLGPHKTLVVTANRGSSPQVLPRNNGSVSRKPWPQHTHSYTVSQMTLERIGAVPVMVPAQSRAGSLV
Q: Which binding does the source give for B1 here?
A: no binding
